Assay results: the supplement of paper PMC10849652
The other results are listed elsewhere or left out.

Sequences of proteins named here, by UniProt entry; tags and fusion partners are left off. A change or cut given only in a name is not applied to a line headed by its entry.
UniProt P23258, whole entry, looked up: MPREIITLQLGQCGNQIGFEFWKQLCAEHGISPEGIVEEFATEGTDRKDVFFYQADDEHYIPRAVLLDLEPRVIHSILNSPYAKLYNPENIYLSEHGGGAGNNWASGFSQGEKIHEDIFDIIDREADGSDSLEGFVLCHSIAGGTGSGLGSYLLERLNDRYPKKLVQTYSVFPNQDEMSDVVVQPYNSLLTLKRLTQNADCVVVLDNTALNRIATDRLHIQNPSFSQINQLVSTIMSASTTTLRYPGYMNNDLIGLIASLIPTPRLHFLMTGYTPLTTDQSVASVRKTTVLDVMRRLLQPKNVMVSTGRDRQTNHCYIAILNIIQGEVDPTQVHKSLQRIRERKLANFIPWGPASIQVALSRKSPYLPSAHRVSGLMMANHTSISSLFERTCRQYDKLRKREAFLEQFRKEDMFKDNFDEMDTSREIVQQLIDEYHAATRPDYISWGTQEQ
UniProt Q5JXB2: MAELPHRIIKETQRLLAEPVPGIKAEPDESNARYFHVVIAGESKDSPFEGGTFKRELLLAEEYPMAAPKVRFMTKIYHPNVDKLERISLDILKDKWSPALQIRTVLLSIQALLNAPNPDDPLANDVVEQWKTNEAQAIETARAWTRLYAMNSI
UniProt O95881: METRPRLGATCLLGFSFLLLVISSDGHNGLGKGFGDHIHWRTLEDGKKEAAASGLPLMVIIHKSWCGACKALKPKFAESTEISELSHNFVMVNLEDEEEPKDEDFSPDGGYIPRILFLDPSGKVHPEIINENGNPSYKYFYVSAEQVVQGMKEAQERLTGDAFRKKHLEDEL
UniProt Q12792, whole entry, looked up: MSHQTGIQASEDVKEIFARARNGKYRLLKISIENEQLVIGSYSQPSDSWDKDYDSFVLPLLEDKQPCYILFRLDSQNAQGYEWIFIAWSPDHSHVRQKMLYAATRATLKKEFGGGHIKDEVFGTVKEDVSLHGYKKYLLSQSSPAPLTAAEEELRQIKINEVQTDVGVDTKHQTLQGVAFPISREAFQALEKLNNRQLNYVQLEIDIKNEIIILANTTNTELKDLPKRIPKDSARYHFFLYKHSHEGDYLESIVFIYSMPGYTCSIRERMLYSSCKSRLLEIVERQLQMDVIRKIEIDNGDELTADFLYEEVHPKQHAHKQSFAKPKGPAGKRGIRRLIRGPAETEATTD
UniProt Q9BRA2: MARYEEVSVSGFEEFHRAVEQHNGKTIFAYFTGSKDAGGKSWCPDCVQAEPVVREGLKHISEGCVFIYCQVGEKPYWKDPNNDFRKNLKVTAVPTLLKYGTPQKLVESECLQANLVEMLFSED
UniProt Q96AE7: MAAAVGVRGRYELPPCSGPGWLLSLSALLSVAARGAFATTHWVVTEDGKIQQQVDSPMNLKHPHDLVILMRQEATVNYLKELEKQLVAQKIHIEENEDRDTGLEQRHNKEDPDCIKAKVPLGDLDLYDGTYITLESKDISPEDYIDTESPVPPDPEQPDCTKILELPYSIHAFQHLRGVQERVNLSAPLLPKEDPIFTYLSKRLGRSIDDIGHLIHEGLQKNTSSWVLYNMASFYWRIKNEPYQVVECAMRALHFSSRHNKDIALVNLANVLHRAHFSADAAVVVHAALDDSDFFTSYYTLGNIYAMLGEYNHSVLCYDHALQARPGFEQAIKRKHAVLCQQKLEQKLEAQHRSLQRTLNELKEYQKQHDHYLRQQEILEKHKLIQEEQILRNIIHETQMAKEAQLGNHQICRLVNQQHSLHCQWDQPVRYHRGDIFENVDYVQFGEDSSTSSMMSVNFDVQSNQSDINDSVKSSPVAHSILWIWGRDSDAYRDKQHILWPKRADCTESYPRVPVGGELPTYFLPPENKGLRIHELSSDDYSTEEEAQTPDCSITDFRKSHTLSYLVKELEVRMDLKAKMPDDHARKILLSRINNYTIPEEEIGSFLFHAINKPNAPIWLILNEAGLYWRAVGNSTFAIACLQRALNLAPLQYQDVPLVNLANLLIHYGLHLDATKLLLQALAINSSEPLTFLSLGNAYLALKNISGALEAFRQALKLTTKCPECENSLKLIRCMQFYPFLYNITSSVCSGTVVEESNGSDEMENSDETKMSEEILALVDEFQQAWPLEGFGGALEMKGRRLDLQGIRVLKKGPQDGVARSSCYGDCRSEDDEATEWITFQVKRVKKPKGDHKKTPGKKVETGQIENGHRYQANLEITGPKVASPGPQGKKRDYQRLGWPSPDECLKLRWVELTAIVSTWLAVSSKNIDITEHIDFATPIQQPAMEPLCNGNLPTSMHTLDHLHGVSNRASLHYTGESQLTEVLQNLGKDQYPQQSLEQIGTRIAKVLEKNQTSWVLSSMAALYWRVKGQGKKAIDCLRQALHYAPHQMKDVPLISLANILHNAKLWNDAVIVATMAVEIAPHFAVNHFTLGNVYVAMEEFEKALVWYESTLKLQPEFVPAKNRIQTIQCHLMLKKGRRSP
UniProt Q96J42: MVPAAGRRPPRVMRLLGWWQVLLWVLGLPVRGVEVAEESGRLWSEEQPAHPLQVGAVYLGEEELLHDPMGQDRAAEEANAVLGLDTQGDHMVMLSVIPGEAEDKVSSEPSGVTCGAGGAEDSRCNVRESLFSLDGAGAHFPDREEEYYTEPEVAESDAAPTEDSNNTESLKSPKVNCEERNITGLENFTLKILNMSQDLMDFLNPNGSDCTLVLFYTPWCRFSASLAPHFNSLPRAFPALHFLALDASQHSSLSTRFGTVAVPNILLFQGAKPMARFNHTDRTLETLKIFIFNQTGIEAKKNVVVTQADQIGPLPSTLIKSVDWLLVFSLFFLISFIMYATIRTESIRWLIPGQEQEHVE
UniProt Q05086: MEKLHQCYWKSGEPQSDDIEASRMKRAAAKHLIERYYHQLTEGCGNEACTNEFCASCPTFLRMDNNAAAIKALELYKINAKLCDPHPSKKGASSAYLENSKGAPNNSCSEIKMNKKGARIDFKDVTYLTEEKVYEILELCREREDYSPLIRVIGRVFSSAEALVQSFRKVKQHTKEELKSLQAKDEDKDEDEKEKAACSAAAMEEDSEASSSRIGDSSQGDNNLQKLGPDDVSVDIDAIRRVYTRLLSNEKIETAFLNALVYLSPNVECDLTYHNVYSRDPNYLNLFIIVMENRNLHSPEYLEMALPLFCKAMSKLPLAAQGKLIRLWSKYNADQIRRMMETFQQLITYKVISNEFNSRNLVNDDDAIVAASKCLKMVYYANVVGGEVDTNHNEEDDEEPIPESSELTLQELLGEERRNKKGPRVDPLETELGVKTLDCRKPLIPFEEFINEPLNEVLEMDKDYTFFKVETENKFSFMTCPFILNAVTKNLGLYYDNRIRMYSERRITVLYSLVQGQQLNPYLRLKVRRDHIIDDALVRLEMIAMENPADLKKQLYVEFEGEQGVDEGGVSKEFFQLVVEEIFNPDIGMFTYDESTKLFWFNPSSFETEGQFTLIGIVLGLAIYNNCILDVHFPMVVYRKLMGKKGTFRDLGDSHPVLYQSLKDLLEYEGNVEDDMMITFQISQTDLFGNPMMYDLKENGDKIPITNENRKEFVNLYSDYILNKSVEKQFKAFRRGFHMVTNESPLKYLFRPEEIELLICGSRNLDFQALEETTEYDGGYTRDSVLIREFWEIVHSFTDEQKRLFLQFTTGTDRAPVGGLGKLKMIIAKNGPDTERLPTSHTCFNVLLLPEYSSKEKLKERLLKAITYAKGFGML
UniProt Q14166: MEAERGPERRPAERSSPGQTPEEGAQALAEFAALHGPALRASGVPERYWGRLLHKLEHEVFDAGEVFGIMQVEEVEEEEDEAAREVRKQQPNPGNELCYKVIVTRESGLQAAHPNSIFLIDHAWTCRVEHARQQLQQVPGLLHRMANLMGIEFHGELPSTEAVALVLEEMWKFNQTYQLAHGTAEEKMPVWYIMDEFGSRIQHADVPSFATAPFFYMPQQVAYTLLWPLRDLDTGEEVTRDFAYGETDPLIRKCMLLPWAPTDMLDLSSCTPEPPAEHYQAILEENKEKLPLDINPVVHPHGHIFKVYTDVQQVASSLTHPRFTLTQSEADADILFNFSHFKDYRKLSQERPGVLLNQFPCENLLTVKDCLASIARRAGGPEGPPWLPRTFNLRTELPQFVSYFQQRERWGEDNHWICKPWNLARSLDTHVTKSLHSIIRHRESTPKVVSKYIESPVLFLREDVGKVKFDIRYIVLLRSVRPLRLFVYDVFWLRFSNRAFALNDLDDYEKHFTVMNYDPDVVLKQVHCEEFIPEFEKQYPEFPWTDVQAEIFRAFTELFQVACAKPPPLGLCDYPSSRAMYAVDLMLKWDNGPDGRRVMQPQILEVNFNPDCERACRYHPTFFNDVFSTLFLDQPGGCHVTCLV
UniProt P83876: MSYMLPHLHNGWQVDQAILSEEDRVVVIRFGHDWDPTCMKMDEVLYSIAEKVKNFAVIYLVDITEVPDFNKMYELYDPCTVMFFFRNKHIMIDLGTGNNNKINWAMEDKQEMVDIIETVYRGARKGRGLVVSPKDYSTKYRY
UniProt P10599: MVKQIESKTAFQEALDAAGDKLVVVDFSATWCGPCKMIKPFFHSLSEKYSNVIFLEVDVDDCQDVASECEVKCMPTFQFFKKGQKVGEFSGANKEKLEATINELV
UniProt Q9GZX9: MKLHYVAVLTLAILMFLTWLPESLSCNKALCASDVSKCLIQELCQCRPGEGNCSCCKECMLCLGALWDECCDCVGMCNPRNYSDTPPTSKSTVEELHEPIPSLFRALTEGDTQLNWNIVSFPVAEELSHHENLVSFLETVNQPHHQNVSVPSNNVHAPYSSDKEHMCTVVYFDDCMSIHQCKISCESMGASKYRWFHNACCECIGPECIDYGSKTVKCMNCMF
UniProt P0DPH7, whole entry, looked up: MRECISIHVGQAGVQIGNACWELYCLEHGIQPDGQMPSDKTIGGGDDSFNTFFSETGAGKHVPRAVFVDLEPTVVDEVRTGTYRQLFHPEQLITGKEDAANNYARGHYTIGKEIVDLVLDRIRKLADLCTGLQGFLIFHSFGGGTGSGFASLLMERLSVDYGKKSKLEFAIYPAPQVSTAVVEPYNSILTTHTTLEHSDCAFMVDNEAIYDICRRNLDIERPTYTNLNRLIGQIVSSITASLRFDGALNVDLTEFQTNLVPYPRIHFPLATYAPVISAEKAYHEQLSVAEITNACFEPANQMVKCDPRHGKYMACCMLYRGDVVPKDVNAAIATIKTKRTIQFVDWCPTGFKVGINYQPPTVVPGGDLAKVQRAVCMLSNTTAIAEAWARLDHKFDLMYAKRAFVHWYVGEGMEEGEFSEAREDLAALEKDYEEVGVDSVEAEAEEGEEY
UniProt P49459, whole entry, looked up: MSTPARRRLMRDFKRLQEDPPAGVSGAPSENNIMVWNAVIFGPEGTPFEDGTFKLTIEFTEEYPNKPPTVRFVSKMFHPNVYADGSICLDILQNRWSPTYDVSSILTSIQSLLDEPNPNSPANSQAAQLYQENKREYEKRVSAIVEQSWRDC
UniProt P62256: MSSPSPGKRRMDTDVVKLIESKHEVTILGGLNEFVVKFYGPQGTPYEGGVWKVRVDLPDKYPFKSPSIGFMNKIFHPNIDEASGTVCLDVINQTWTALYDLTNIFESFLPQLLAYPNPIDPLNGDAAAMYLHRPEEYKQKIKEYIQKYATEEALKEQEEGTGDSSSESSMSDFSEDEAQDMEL

Key:
Assay in all cases: log2 fold change, soluble protein after heating vs DMSO (PISA); higher = thermal stabilisation; K562 cells, 10 uM, 30 min; active = over 0.2 and 3.5 SD of the protein, either way, in both replicates (recomputed)
[1] = compound: CC1=C(C=C(C=C1)NC(=O)C2=CC(=CC=C2)C(C)(C)C#N)NC3=CC4=C(C=C3)N=CN(C4=O)C
How it was run: (§1)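 K562 cells at 2×10^6 cells/mL were given 10 μM compound for 30 min. Aliquots then went through 3 min of heating across 48°C-58°C, were pooled, and were extracted in PBS with 0.5% NP-40 at 4°C, and the supernatant after 21,000xg for 90 min was quantified by TMTpro 16plex LC-MS/MS with channel sums equalised. Thermal stability relative to control samples, from duplicates, is given as log2 fold change.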

[2] = compound: CC1=C(C=C(C=C1)NC(=O)C2=CC(=CC=C2)N(C)C)NC(=O)C3=CC=C(C=C3)O
How it was run: as §1

[3] = compound: CC1=CC=C(C=C1)SC2=C3C=C(SC3=CN=C2)C(=O)N
How it was run: as §1

[4] = compound: CC1=NC(=CC=C1)C2=C(N=C(N2)C(C)(C)C)C3=CC4=NC=CN=C4C=C3
How it was run: as §1

[5] = compound: CCCCN(Cc1ccc(C(=O)NO)cc1)C(=O)Nc1ccccc1 [Nexturastat A]
How it was run: as §1

[6] = compound: CCCS(=O)(=O)Nc1ccc(F)c(C(=O)c2c[nH]c3ncc(-c4ccc(Cl)cc4)cc23)c1F [vemurafenib]
How it was run: as §1

[7] = compound: CCCS(=O)(=O)Nc1ccc(F)c(C(=O)c2c[nH]c3ncc(Cl)cc23)c1F
How it was run: as §1

[8] = compound: CCCc1cc(C)[nH]c(=O)c1CNC(=O)c1cc(-c2ccnc(N3CCN(C)CC3)c2)cc2c1cnn2C(C)C
How it was run: as §1

[9] = compound: CCN(CC)Cc1ccc2cc(COC(=O)Nc3ccc(C(=O)NO)cc3)ccc2c1 [givinostat]
How it was run: as §1

[10] = compound: CCN(CCCOc1ccc2c(Nc3cc(CC(=O)Nc4cccc(F)c4)[nH]n3)ncnc2c1)CCOP(=O)(O)O [barasertib]
How it was run: as §1

[11] = compound: CC[C@@H]1C(=O)N(C)c2cnc(Nc3ccc(C(=O)NC4CCN(C)CC4)cc3OC)nc2N1C1CCCC1
How it was run: as §1

[12] = compound: CC[C@@H]1C(=O)N(C)c2cnc(Nc3ccc(C(=O)N[C@H]4CC[C@H](N5CCN(CC6CC6)CC5)CC4)cc3OC)nc2N1C(C)C [volasertib]
How it was run: as §1

[13] = compound: CC[C@H](C)N1C=C(C2=C(C=C(C=C21)C3=CN=C(C=C3)N4CCNCC4)C(=O)NCC5=C(C=C(NC5=O)C)C)C
How it was run: as §1

[14] = compound: CC[C@H](C)[C@@H](C(=O)N[C@@H]([C@@H](C)O)C(=O)N[C@@H](CC(C)C)C(=O)[C@]1(CO1)C)NC(=O)[C@H]([C@@H](C)CC)N(C)C(=O)C [epoxomicin]
How it was run: as §1

[15] = compound: CCn1c(C(=O)N(C2CC2)C2CC2)cc2c3c(ncn3C)c(Nc3cc(C)n(C)n3)nc21
How it was run: as §1

[16] = compound: CCn1cc(-c2ccnc3[nH]c(-c4cccc(CN(C)C)c4)cc23)c(-c2ccc(NC(=O)N(C)C)cc2)n1
How it was run: as §1

[17] = compound: CN(C)CC(=O)Nc1ccc2[nH]c(=O)c3ccccc3c2c1
How it was run: as §1

[18] = compound: CN(CCOC1=CC=C(C=C1)C[C@H]2C(=O)NC(=O)S2)C3=CC=CC=N3 (racemic) [rosiglitazone]
How it was run: as §1

[19] = compound: CN1C2=C(C3=C1C(=O)N(N=C3)CC4=CC(=CC=C4)N)SC(=C2)S(=O)C
How it was run: as §1

[20] = compound: CN1CCC(CNc2ccc3ncc(-c4cccc(OC(F)(F)F)c4)n3n2)CC1
How it was run: as §1

Measured: log2 fold change

TUBG1 (UniProt P23258)
inactive: [1] -0.046 | [2] 0.029 | [3] -0.015 | [4] -0.024 | [5] 0.049 | [6] -0.018 | [7] -0.01 | [8] 0.039 | [9] -0.047 | [10] 0 | [11] 0.048 | [12] 0.035 | [13] 0 | [14] 0.025 | [15] 0.098 | [16] 0.018 | [17] 0.012 | [18] -0.007 | [19] 0.008 | [20] -0.034

UBE2NL (UniProt Q5JXB2)
inactive: [1] 0.036 | [2] -0.017 | [3] 0.09 | [4] 0.007 | [5] -0.028 | [6] 0.039 | [7] -0.003 | [8] 0.013 | [9] -0.021 | [10] 0.024 | [11] -0.038 | [12] 0.102 | [13] 0.033 | [14] 0.11 | [15] 0.052 | [16] -0.022 | [17] -0.001 | [18] 0.022 | [19] -0.068 | [20] 0.009

TXNDC12 (UniProt O95881)
inactive: [1] -0.119 | [2] 0.002 | [3] -0.113 | [4] -0.005 | [5] -0.048 | [6] 0.047 | [7] -0.139 | [8] -0.061 | [9] -0.026 | [10] 0.002 | [11] -0.011 | [12] 0.009 | [13] -0.006 | [14] -0.015 | [15] 0.033 | [16] 0.032 | [17] -0.03 | [18] -0.027 | [19] 0.078 | [20] 0.103

TWF1 (UniProt Q12792)
inactive: [1] 0.108 | [2] -0.045 | [3] 0.012 | [4] 0.051 | [5] -0.046 | [6] 0.021 | [7] 0.019 | [8] 0.041 | [9] -0.004 | [10] 0.03 | [11] 0.019 | [12] 0.052 | [13] 0.033 | [14] -0.013 | [15] 0.037 | [16] -0.044 | [17] -0.07 | [18] 0.014 | [19] 0.037 | [20] 0.041

Quoted from the entries so far (two entries):
TXNDC12 (UniProt O95881)
inactive: [1] -0.119 | [2] 0.002 | [3] -0.113 | [4] -0.005 | [5] -0.048 | [6] 0.047 | [7] -0.139 | [8] -0.061 | [9] -0.026 | [10] 0.002 | [11] -0.011 | [12] 0.009 | [13] -0.006 | [14] -0.015 | [15] 0.033 | [16] 0.032 | [17] -0.03 | [18] -0.027 | [19] 0.078 | [20] 0.103

TWF1 (UniProt Q12792)
inactive: [1] 0.108 | [2] -0.045 | [3] 0.012 | [4] 0.051 | [5] -0.046 | [6] 0.021 | [7] 0.019 | [8] 0.041 | [9] -0.004 | [10] 0.03 | [11] 0.019 | [12] 0.052 | [13] 0.033 | [14] -0.013 | [15] 0.037 | [16] -0.044 | [17] -0.07 | [18] 0.014 | [19] 0.037 | [20] 0.041

Next entries

TXNDC17 (UniProt Q9BRA2)
inactive: [1] -0.044 | [2] -0.05 | [3] -0.011 | [4] 0.016 | [5] -0.017 | [6] 0.025 | [7] 0.057 | [8] 0.032 | [9] 0.007 | [10] 0.015 | [11] -0.077 | [12] -0.08 | [13] 0.034 | [14] 0.016 | [15] 0.052 | [16] 0.072 | [17] 0.007 | [18] -0.078 | [19] -0.018 | [20] -0.132

TTC17 (UniProt Q96AE7)
inactive: [1] -0.013 | [2] -0.066 | [3] -0.002 | [4] -0.022 | [5] 0.017 | [6] 0.011 | [7] -0.047 | [8] -0.051 | [9] -0.009 | [10] 0.019 | [11] 0.042 | [12] 0.17 | [13] -0.036 | [14] -0.029 | [15] -0.012 | [16] -0.001 | [17] -0.035 | [18] -0.033 | [19] 0.032 | [20] 0.164

TXNDC15 (UniProt Q96J42)
inactive: [1] 0.088 | [2] -0.097 | [3] -0.05 | [4] 0.039 | [5] -0.073 | [6] -0.01 | [7] -0.094 | [8] -0.204 | [9] 0.042 | [10] 0.043 | [11] 0.014 | [12] 0.063 | [13] -0.097 | [14] 0.143 | [15] 0.033 | [16] 0.083 | [17] 0.11 | [18] -0.032 | [19] -0.106 | [20] 0.07

UBE3A (UniProt Q05086)
inactive: [1] -0.004 | [2] 0 | [3] 0.025 | [4] 0.022 | [5] -0.005 | [6] 0.012 | [7] 0.041 | [8] -0.004 | [9] 0.016 | [10] 0.02 | [11] -0.016 | [12] -0.045 | [13] 0.01 | [14] 0.027 | [15] -0.008 | [16] -0.049 | [17] -0.019 | [18] 0.008 | [19] -0.072 | [20] -0.016

TTLL12 (UniProt Q14166)
inactive: [1] 0.104 | [2] 0.042 | [3] -0.013 | [4] -0.062 | [5] 0.305 | [6] 0.087 | [7] -0.055 | [8] 0.193 | [9] 0.185 | [10] 0.041 | [11] 0.024 | [12] -0.262 | [13] 0.161 | [14] -0.097 | [15] -0.109 | [16] 0.064 | [17] -0.042 | [18] -0.136 | [19] 0.337 | [20] 0.289

TXNL4A (UniProt P83876)
inactive: [1] -0.047 | [2] -0.002 | [3] -0.04 | [4] 0.001 | [5] 0.027 | [6] 0.019 | [7] -0.016 | [8] -0.055 | [9] 0.009 | [10] 0.005 | [11] 0.017 | [12] 0.057 | [13] -0.011 | [14] -0.029 | [15] 0.022 | [16] -0.043 | [17] -0.048 | [18] 0.024 | [19] -0.003 | [20] -0.083

TXN (UniProt P10599)
inactive: [1] 0.003 | [2] 0.009 | [3] -0.041 | [4] 0.015 | [5] -0.03 | [6] 0.001 | [7] -0.054 | [8] 0.058 | [9] -0.015 | [10] 0.034 | [11] -0.017 | [12] 0.115 | [13] -0.033 | [14] 0.032 | [15] 0.056 | [16] -0.052 | [17] -0.032 | [18] -0.037 | [19] -0.027 | [20] -0.029

TWSG1 (UniProt Q9GZX9)
inactive: [1] -0.037 | [2] -0.091 | [3] 0.034 | [4] -0.082 | [5] -0.166 | [6] -0.004 | [7] -0.04 | [8] -0.002 | [9] -0.182 | [10] 0 | [11] 0.049 | [12] 0.068 | [13] -0.023 | [14] 0.013 | [15] 0.006 | [16] -0.042 | [17] -0.029 | [18] 0.008 | [19] -0.011 | [20] 0.047

TUBA3C (UniProt P0DPH7)
inactive: [1] -0.004 | [2] 0.002 | [3] 0.099 | [4] -0.008 | [5] -0.099 | [6] -0.077 | [7] -0.04 | [8] -0.007 | [9] -0.09 | [10] -0.006 | [11] -0.037 | [12] -0.07 | [13] 0.005 | [14] 0.07 | [15] -0.015 | [16] -0.028 | [17] -0.021 | [18] 0.04 | [19] -0.093 | [20] -0.179

UBE2A (UniProt P49459)
inactive: [1] 0.012 | [2] 0 | [3] 0.031 | [4] -0.014 | [5] -0.03 | [6] 0.061 | [7] 0.101 | [8] 0.042 | [9] -0.007 | [10] 0.003 | [11] -0.107 | [12] -0.074 | [13] 0.1 | [14] 0.156 | [15] -0.033 | [16] -0.075 | [17] 0.046 | [18] 0.005 | [19] -0.181 | [20] -0.063

UBE2H (UniProt P62256)
inactive: [1] -0.013 | [2] 0.051 | [3] 0.01 | [4] 0.021 | [5] -0.006 | [6] -0.006 | [7] 0.073 | [8] -0.01 | [9] -0.02 | [10] 0.063 | [11] -0.033 | [12] -0.154 | [13] 0.036 | [14] 0.045 | [15] 0.029 | [16] 0.029 | [17] 0.002 | [18] 0.006 | [19] -0.029 | [20] -0.047

TUFM (UniProt P49411)
inactive: [1] 0 | [2] -0.066 | [3] 0.011 | [4] 0.019 | [5] -0.079 | [6] 0.028 | [7] 0.044 | [8] 0.073 | [9] 0.018 | [10] 0.055 | [11] 0.033 | [12] 0.001 | [13] 0.094 | [14] 0.065 | [15] 0.019 | [16] -0.127 | [17] 0.047 | [18] 0.061 | [19] -0.135 | [20] -0.164
